Experimental findings from article doi:10.1101/2024.02.24.581848 are described below.

No constants are given. Whether binding was seen depends on the method and setting. Binding calls can cover weak binding; strength is not graded here.

This experiment has as its target HigC SecB^TA chaperone of the E. coli NT1F31 HigBAC system (E. coli NT1F31). Description: HDX-MS.

As for GELTAESYDDSYLDDEDADWTATGQGQKSAG (peptide, UniProt P03733 48-78) [gpV^48-78 peptide], the binding result is reported as “binds”.
